The values below come from PMC11148063.

By UniProt entry, the sequences of proteins in these tests, tags left out. Residues count along the entry.
UniProt P07237, residues 18-508: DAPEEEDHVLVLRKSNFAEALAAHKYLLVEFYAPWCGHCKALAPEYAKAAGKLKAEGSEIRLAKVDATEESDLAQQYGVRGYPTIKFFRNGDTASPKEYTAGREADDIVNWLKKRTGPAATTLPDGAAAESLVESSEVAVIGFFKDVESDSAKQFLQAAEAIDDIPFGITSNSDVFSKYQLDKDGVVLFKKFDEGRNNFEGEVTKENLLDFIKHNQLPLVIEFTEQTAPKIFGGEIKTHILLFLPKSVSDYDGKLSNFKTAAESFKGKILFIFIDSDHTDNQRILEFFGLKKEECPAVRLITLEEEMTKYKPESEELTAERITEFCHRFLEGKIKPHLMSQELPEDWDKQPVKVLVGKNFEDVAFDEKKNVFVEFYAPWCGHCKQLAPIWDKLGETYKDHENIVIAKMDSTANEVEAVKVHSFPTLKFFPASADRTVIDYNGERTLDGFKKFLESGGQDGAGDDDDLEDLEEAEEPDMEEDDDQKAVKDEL
UniProt P30101, residues 25-505: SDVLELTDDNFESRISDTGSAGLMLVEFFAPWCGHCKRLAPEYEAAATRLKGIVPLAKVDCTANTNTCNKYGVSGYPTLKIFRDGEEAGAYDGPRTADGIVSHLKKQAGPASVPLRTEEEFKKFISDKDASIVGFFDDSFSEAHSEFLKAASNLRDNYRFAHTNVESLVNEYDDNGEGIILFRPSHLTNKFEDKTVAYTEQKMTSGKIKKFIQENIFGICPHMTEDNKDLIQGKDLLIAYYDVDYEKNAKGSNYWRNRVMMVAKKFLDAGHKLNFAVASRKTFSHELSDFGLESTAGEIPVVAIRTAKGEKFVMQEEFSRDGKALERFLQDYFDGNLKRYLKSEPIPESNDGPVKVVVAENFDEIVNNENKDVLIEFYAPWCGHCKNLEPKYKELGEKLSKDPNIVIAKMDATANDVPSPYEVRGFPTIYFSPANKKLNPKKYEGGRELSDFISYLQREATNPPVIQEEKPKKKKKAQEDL

No constants are given. Whether binding was seen depends on the method and setting. In cells and extracts the contact can be indirect. These calls come from enrichment with a bait or labelling near it, and not all partners need be listed.

The target of the experiment is T1, human Fructosamine-3-kinase (HsFN3K), endogenous (human (endogenous in HepG2)) (UniProt Q9H479).
T1 sequence: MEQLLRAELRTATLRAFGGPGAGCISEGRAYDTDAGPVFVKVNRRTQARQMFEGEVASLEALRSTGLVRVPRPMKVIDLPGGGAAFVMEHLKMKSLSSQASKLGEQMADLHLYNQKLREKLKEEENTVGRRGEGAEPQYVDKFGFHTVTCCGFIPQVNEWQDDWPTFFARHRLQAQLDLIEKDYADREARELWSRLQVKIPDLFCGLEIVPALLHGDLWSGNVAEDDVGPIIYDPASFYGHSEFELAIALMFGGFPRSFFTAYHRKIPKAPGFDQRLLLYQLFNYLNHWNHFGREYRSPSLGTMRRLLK
Put plainly: affinity purification with mass spectrometry; IP with rabbit polyclonal anti-FN3K antibody and protein A/G plus agarose beads from WT and FN3K KO HepG2 lysate (50 mM Tris-HCl pH 7.4, 150 mM NaCl, 1% Triton X-100, 1 mM EDTA, 10% glycerol), 4 C, 18 h; LC-MS/MS; hits: only in WT or LFQ ratio WT/KO > 1.5.

Consider “prolyl 4-hydroxylase subunit beta (P4HB aka PDIA1) (from UniProt P07237 18-508) (enzyme)”, for which the binding result is given as “binds”.
On to “protein disulfide isomerase (PDI) family A member 3 (PDIA3) (from UniProt P30101 25-505) (enzyme)”, for which the binding entry is recorded as “binds”.

B1: protein disulfide isomerase (PDI) family A member 6 (PDIA6) (enzyme, UniProt Q15084 20-440)
chain: LYSSSDDVIELTPSNFNREVIQSDSLWLVEFYAPWCGHCQRLTPEWKKAATALKDVVKVGAVDADKHHSLGGQYGVQGFPTIKIFGSNKNRPEDYQGGRTGEAIVDAALSALRQLVKDRLGGRSGGYSSGKQGRSDSSSKKDVIELTDDSFDKNVLDSEDVWMVEFYAPWCGHCKNLEPEWAAAASEVKEQTKGKVKLAAVDATVNQVLASRYGIRGFPTIKIFQKGESPVDYDGGRTRSDIVSRALDLFSDNAPPPELLEIINEDIAKRTCEEHQLCVVAVLPHILDTGAAGRNSYLEVLLKLADKYKKKMWGWLWTEAGAQSELETALGIGGFGYPAMAAINARKMKFALLKGSFSEQGINEFLRELSFGRGSTAPVGGGAFPTIVEREPWDGRDGELPVEDDIDLSDVELDDLGKDEL
On to B1, for which the binding result is listed as “binds”.

B2: protein disulfide isomerase (PDI) family A member 4 (PDIA4) (enzyme, UniProt P13667 21-645)
chain: VAGAEGPDEDSSNRENAIEDEEEEEEEDDDEEEDDLEVKEENGVLVLNDANFDNFVADKDTVLLEFYAPWCGHCKQFAPEYEKIANILKDKDPPIPVAKIDATSASVLASRFDVSGYPTIKILKKGQAVDYEGSRTQEEIVAKVREVSQPDWTPPPEVTLVLTKENFDEVVNDADIILVEFYAPWCGHCKKLAPEYEKAAKELSKRSPPIPLAKVDATAETDLAKRFDVSGYPTLKIFRKGRPYDYNGPREKYGIVDYMIEQSGPPSKEILTLKQVQEFLKDGDDVIIIGVFKGESDPAYQQYQDAANNLREDYKFHHTFSTEIAKFLKVSQGQLVVMQPEKFQSKYEPRSHMMDVQGSTQDSAIKDFVLKYALPLVGHRKVSNDAKRYTRRPLVVVYYSVDFSFDYRAATQFWRSKVLEVAKDFPEYTFAIADEEDYAGEVKDLGLSESGEDVNAAILDESGKKFAMEPEEFDSDTLREFVTAFKKGKLKPVIKSQPVPKNNKGPVKVVVGKTFDSIVMDPKKDVLIEFYAPWCGHCKQLEPVYNSLAKKYKGQKGLVIAKMDATANDVPSDRYKVEGFPTIYFAPSGDKKNPVKFEGGDRDLEHLSKFIEEHATKLSRTKEEL
B2: the binding result is “binds”.
